In the experiment the target is PA-tagged human J-chain (disulfide-linked J-chain oligomers) (human) (UniProt P01591). The experiment in a line: high-speed AFM; 100 nM J-chain oligomers immobilised on a cobalt-scattered mica surface, 10 nM ERdj5 added to the cantilever holder; 50 mM Tris-HCl pH 7.0, 150 mM NaCl, 5 mM MgCl2, 2.5 mM GSH; room temperature; 0.1 s/frame; both purified.

Sequences of proteins named here, by UniProt entry; tags and fusion partners are left off. Residues count along the entry.
UniProt P01591, residues 24-159: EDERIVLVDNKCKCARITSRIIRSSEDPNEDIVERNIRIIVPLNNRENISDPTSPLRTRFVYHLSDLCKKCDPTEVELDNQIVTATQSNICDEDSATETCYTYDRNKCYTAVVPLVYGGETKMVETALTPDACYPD

These are yes or no findings as the source states them, for the method shown. Some binding calls cover weakened binding; strength is not graded here. Where a sequence is shown, tags or fusion partners need not be part of it.

B1: DnaJ homolog subfamily C member 10 (ERdj5) WT, FLAG-tagged (enzyme, UniProt Q9DC23 33-793)
chain: DQNFYSLLGVSKTASSREIRQAFKKLALKLHPDKNPNNPNAHGDFLKINRAYEVLKDEDLRKKYDKYGEKGLEDNQGGQYESWSYYRYDFGIYDDDPEIITLERREFDAAVNSGELWFVNFYSPGCSHCHDLAPTWREFAKEVDGLLRIGAVNCGDDRMLCRMKGVNSYPSLFIFRSGMAAVKYNGDRSKESLVAFAMQHVRSTVTELSTGNFVNAIETAFAAGVGWLITFCSKGEDCLTSQTRLRLSGMLDGLVNVGWVDCDAQDSLCKSLDTTASTTAYFPPGATLNDREKSSVLFLNSLDAKEIYMEIIHNLPDFELLSANQLEDRLAHHRWLVFFHFGKNENANDPELKKLKTLLKNEHIQVGRFDCSSAPGICSDLYVFQPCLAVFKGQGTKEYEIHHGKKILYDILAFAKESVNSHVTTLGPQNFPASDKEPWLVDFFAPWCPPCRALLPELRKASTLLYGQLKVGTLDCTIHEGLCNMYNIQAYPTTVVFNQSSIHEYEGHHSAEQILEFIEDLRNPSVVSLTPSTFNELVKQRKHDEVWMVDFYSPWCHPCQVLMPEWKRMARTLTGLINVGSVDCQQYHSFCTQENVQRYPEIRFYPQKSSKAYQYHSYNGWNRDAYSLRSWGLGFLPQASIDLTPQTFNEKVLQGKTHWVVDFYAPWCGPCQNFAPEFELLARMIKGKVRAGKVDCQAYPQTCQKAGIKAYPSVKLYQYERAKKSIWEEQINSRDAKTIAALIYGKLETLQSQVKRNKDEL
For the molecule B1, the binding entry was “binds”.
